# These are yes or no findings as the source states them, for the method shown. In cells and extracts the contact can be indirect. Some results given as binding are weak or reduced against the parent protein; the word gives no strength. Where a sequence is shown, tags or fusion partners need not be part of it.
# T1: SBP-GFP-UPF1-(610–914) (pEFh-SBP-GFP-hUPF1-(610–914)) (human) (UniProt Q92900)
# T1 sequence: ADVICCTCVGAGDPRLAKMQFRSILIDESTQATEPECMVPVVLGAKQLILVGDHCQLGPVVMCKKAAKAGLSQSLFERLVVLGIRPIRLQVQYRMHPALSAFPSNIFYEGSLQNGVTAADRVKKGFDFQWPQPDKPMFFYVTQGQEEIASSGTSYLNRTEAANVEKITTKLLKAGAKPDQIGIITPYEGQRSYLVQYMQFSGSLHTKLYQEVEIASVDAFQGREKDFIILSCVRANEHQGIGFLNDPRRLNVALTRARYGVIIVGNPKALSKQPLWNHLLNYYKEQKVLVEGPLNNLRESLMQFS
# T2: Flag-Regnase-1 (mouse) (UniProt Q5D1E7)
# T2 sequence: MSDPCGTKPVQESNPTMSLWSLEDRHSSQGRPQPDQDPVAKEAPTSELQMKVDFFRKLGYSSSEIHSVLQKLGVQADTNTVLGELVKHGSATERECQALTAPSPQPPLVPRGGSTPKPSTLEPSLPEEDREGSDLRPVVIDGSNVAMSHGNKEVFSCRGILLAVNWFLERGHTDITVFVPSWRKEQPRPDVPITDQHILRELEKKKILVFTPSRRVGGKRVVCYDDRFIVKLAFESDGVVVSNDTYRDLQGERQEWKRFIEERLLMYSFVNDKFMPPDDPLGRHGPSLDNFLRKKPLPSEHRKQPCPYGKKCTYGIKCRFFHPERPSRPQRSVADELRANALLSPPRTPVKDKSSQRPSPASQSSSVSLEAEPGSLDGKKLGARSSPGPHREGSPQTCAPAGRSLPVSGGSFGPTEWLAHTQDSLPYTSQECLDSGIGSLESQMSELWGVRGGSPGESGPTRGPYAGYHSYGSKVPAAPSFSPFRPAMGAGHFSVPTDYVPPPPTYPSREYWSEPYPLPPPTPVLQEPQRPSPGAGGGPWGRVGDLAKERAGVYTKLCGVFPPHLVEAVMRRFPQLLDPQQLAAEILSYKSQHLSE
# Target: T1, SBP-GFP-UPF1-(610–914) (pEFh-SBP-GFP-hUPF1-(610–914)) (human)
# Test: co-IP; anti-GFP antibody on protein G magnetic beads, lysates of transfected HeLa cells (0.1% NP-40, 150 mM NaCl, 10 mM Tris-HCl pH 8.0), 3 h at 4°C; GFP-UPF1 fragments precipitated
row,binding,Binder
1,binds,"HA-UPF1-(6–429) (pSR-HA-hUPF1-(6–429)) (domain or fragment, UniProt Q92900-2 6-429) YGPSSQTLTFLDTEEAELLGADTQGSEFEFTDFTLPSQTQTPPGGPGGPGGGGAGGPGGAGAGAAAGQLDAQVGPEGILQNGAVDDSVAKTSQLLAELNFEEDEEDTYYTKDLPIHACSYCGIHDPACVVYCNTSKKWFCNGRGNTSGSHIVNHLVRAKCKEVTLHKDGPLGETVLECYNCGCRNVFLLGFIPAKADSVVVLLCRQPCASQSSLKDINWDSSQWQPLIQDRCFLSWLVKIPSEQEQLRARQITAQQINKLEELWKENPSATLEDLEKPGVDEEPQHVLLRYEDAYQYQNIFGPLVKLEADYDKKLKESQTQDNITVRWDLGLNKKRIAYFTLPKTDSDMRLMQGDEICLRYKGDLAPLWKGIGHVIKVPDNYGDEIAIELRSSVGAPVEVTHNFQVDFVWKSTSFDRMQSALKT"

# Target: T2, Flag-Regnase-1 (mouse)
# Test: co-IP; anti-Flag antibody on protein G magnetic beads, lysates of transfected HeLa cells (0.1% NP-40, 150 mM NaCl, 10 mM Tris-HCl pH 8.0), 3 h at 4°C; Flag-Regnase-1 precipitated, UPF1 constructs blotted; λ protein phosphatase treatment of lysates and SMG1 knockdown are said to reduce or inhibit the association
row,Binder,binding
1,"HA-UPF1-ΔCT (amino acids 6–1027) (domain or fragment, UniProt Q92900-2 6-1027) YGPSSQTLTFLDTEEAELLGADTQGSEFEFTDFTLPSQTQTPPGGPGGPGGGGAGGPGGAGAGAAAGQLDAQVGPEGILQNGAVDDSVAKTSQLLAELNFEEDEEDTYYTKDLPIHACSYCGIHDPACVVYCNTSKKWFCNGRGNTSGSHIVNHLVRAKCKEVTLHKDGPLGETVLECYNCGCRNVFLLGFIPAKADSVVVLLCRQPCASQSSLKDINWDSSQWQPLIQDRCFLSWLVKIPSEQEQLRARQITAQQINKLEELWKENPSATLEDLEKPGVDEEPQHVLLRYEDAYQYQNIFGPLVKLEADYDKKLKESQTQDNITVRWDLGLNKKRIAYFTLPKTDSDMRLMQGDEICLRYKGDLAPLWKGIGHVIKVPDNYGDEIAIELRSSVGAPVEVTHNFQVDFVWKSTSFDRMQSALKTFAVDETSVSGYIYHKLLGHEVEDVIIKCQLPKRFTAQGLPDLNHSQVYAVKTVLQRPLSLIQGPPGTGKTVTSATIVYHLARQGNGPVLVCAPSNIAVDQLTEKIHQTGLKVVRLCAKSREAIDSPVSFLALHNQIRNMDSMPELQKLQQLKDETGELSSADEKRYRALKRTAERELLMNADVICCTCVGAGDPRLAKMQFRSILIDESTQATEPECMVPVVLGAKQLILVGDHCQLGPVVMCKKAAKAGLSQSLFERLVVLGIRPIRLQVQYRMHPALSAFPSNIFYEGSLQNGVTAADRVKKGFDFQWPQPDKPMFFYVTQGQEEIASSGTSYLNRTEAANVEKITTKLLKAGAKPDQIGIITPYEGQRSYLVQYMQFSGSLHTKLYQEVEIASVDAFQGREKDFIILSCVRANEHQGIGFLNDPRRLNVALTRARYGVIIVGNPKALSKQPLWNHLLNYYKEQKVLVEGPLNNLRESLMQFSKPRKLVNTINPGARFMTTAMYDAREAIIPGSVYDRSSQGRPSSMYFQTHDQIGMISAGPSHVAAMNIPIPFNLVMPPMPPPGYFGQANGPAAGRGTPKGKTGRGGRQKNRFGL",binds
2,"HA-UPF1-ΔNCT (amino acids 64–1027) (domain or fragment, UniProt Q92900-2 64-1027) GAGAGAAAGQLDAQVGPEGILQNGAVDDSVAKTSQLLAELNFEEDEEDTYYTKDLPIHACSYCGIHDPACVVYCNTSKKWFCNGRGNTSGSHIVNHLVRAKCKEVTLHKDGPLGETVLECYNCGCRNVFLLGFIPAKADSVVVLLCRQPCASQSSLKDINWDSSQWQPLIQDRCFLSWLVKIPSEQEQLRARQITAQQINKLEELWKENPSATLEDLEKPGVDEEPQHVLLRYEDAYQYQNIFGPLVKLEADYDKKLKESQTQDNITVRWDLGLNKKRIAYFTLPKTDSDMRLMQGDEICLRYKGDLAPLWKGIGHVIKVPDNYGDEIAIELRSSVGAPVEVTHNFQVDFVWKSTSFDRMQSALKTFAVDETSVSGYIYHKLLGHEVEDVIIKCQLPKRFTAQGLPDLNHSQVYAVKTVLQRPLSLIQGPPGTGKTVTSATIVYHLARQGNGPVLVCAPSNIAVDQLTEKIHQTGLKVVRLCAKSREAIDSPVSFLALHNQIRNMDSMPELQKLQQLKDETGELSSADEKRYRALKRTAERELLMNADVICCTCVGAGDPRLAKMQFRSILIDESTQATEPECMVPVVLGAKQLILVGDHCQLGPVVMCKKAAKAGLSQSLFERLVVLGIRPIRLQVQYRMHPALSAFPSNIFYEGSLQNGVTAADRVKKGFDFQWPQPDKPMFFYVTQGQEEIASSGTSYLNRTEAANVEKITTKLLKAGAKPDQIGIITPYEGQRSYLVQYMQFSGSLHTKLYQEVEIASVDAFQGREKDFIILSCVRANEHQGIGFLNDPRRLNVALTRARYGVIIVGNPKALSKQPLWNHLLNYYKEQKVLVEGPLNNLRESLMQFSKPRKLVNTINPGARFMTTAMYDAREAIIPGSVYDRSSQGRPSSMYFQTHDQIGMISAGPSHVAAMNIPIPFNLVMPPMPPPGYFGQANGPAAGRGTPKGKTGRGGRQKNRFGL",binds
3,"HA-UPF1-ΔNT (amino acids 64–1118) (domain or fragment, UniProt Q92900-2 64-1118) GAGAGAAAGQLDAQVGPEGILQNGAVDDSVAKTSQLLAELNFEEDEEDTYYTKDLPIHACSYCGIHDPACVVYCNTSKKWFCNGRGNTSGSHIVNHLVRAKCKEVTLHKDGPLGETVLECYNCGCRNVFLLGFIPAKADSVVVLLCRQPCASQSSLKDINWDSSQWQPLIQDRCFLSWLVKIPSEQEQLRARQITAQQINKLEELWKENPSATLEDLEKPGVDEEPQHVLLRYEDAYQYQNIFGPLVKLEADYDKKLKESQTQDNITVRWDLGLNKKRIAYFTLPKTDSDMRLMQGDEICLRYKGDLAPLWKGIGHVIKVPDNYGDEIAIELRSSVGAPVEVTHNFQVDFVWKSTSFDRMQSALKTFAVDETSVSGYIYHKLLGHEVEDVIIKCQLPKRFTAQGLPDLNHSQVYAVKTVLQRPLSLIQGPPGTGKTVTSATIVYHLARQGNGPVLVCAPSNIAVDQLTEKIHQTGLKVVRLCAKSREAIDSPVSFLALHNQIRNMDSMPELQKLQQLKDETGELSSADEKRYRALKRTAERELLMNADVICCTCVGAGDPRLAKMQFRSILIDESTQATEPECMVPVVLGAKQLILVGDHCQLGPVVMCKKAAKAGLSQSLFERLVVLGIRPIRLQVQYRMHPALSAFPSNIFYEGSLQNGVTAADRVKKGFDFQWPQPDKPMFFYVTQGQEEIASSGTSYLNRTEAANVEKITTKLLKAGAKPDQIGIITPYEGQRSYLVQYMQFSGSLHTKLYQEVEIASVDAFQGREKDFIILSCVRANEHQGIGFLNDPRRLNVALTRARYGVIIVGNPKALSKQPLWNHLLNYYKEQKVLVEGPLNNLRESLMQFSKPRKLVNTINPGARFMTTAMYDAREAIIPGSVYDRSSQGRPSSMYFQTHDQIGMISAGPSHVAAMNIPIPFNLVMPPMPPPGYFGQANGPAAGRGTPKGKTGRGGRQKNRFGLPGPSQTNLPNSQASQDVASQPFSQGALTQGYISMSQPSQMSQPGLSQPELSQDSYLGDEFKSQIDVALSQDSTYQGERAYQHGGVTGLSQY",no binding

# More lines, now with the values ahead:
row,binding,Binder
1,binds,"Myc-hUPF1-G495R/G497E (pCMV-Myc-hUPF1-G495R/G497E) (protein, UniProt Q92900-2 1-1118) MSVEAYGPSSQTLTFLDTEEAELLGADTQGSEFEFTDFTLPSQTQTPPGGPGGPGGGGAGGPGGAGAGAAAGQLDAQVGPEGILQNGAVDDSVAKTSQLLAELNFEEDEEDTYYTKDLPIHACSYCGIHDPACVVYCNTSKKWFCNGRGNTSGSHIVNHLVRAKCKEVTLHKDGPLGETVLECYNCGCRNVFLLGFIPAKADSVVVLLCRQPCASQSSLKDINWDSSQWQPLIQDRCFLSWLVKIPSEQEQLRARQITAQQINKLEELWKENPSATLEDLEKPGVDEEPQHVLLRYEDAYQYQNIFGPLVKLEADYDKKLKESQTQDNITVRWDLGLNKKRIAYFTLPKTDSDMRLMQGDEICLRYKGDLAPLWKGIGHVIKVPDNYGDEIAIELRSSVGAPVEVTHNFQVDFVWKSTSFDRMQSALKTFAVDETSVSGYIYHKLLGHEVEDVIIKCQLPKRFTAQGLPDLNHSQVYAVKTVLQRPLSLIQGPPRTEKTVTSATIVYHLARQGNGPVLVCAPSNIAVDQLTEKIHQTGLKVVRLCAKSREAIDSPVSFLALHNQIRNMDSMPELQKLQQLKDETGELSSADEKRYRALKRTAERELLMNADVICCTCVGAGDPRLAKMQFRSILIDESTQATEPECMVPVVLGAKQLILVGDHCQLGPVVMCKKAAKAGLSQSLFERLVVLGIRPIRLQVQYRMHPALSAFPSNIFYEGSLQNGVTAADRVKKGFDFQWPQPDKPMFFYVTQGQEEIASSGTSYLNRTEAANVEKITTKLLKAGAKPDQIGIITPYEGQRSYLVQYMQFSGSLHTKLYQEVEIASVDAFQGREKDFIILSCVRANEHQGIGFLNDPRRLNVALTRARYGVIIVGNPKALSKQPLWNHLLNYYKEQKVLVEGPLNNLRESLMQFSKPRKLVNTINPGARFMTTAMYDAREAIIPGSVYDRSSQGRPSSMYFQTHDQIGMISAGPSHVAAMNIPIPFNLVMPPMPPPGYFGQANGPAAGRGTPKGKTGRGGRQKNRFGLPGPSQTNLPNSQASQDVASQPFSQGALTQGYISMSQPSQMSQPGLSQPELSQDSYLGDEFKSQIDVALSQDSTYQGERAYQHGGVTGLSQY"
2,binds,"SBP-GFP-UPF1-(610–914) (pEFh-SBP-GFP-hUPF1-(610–914)) (domain or fragment, UniProt Q92900-2 610-914) ADVICCTCVGAGDPRLAKMQFRSILIDESTQATEPECMVPVVLGAKQLILVGDHCQLGPVVMCKKAAKAGLSQSLFERLVVLGIRPIRLQVQYRMHPALSAFPSNIFYEGSLQNGVTAADRVKKGFDFQWPQPDKPMFFYVTQGQEEIASSGTSYLNRTEAANVEKITTKLLKAGAKPDQIGIITPYEGQRSYLVQYMQFSGSLHTKLYQEVEIASVDAFQGREKDFIILSCVRANEHQGIGFLNDPRRLNVALTRARYGVIIVGNPKALSKQPLWNHLLNYYKEQKVLVEGPLNNLRESLMQFS"

# — publication PMC7145602
